According to PubChem BioAssay (NCATS):
The inconclusive results got no clear call from the source; some entries with a clear call stand among them for comparison. Where the call is inconclusive, the potency comes from a doubtful curve fit. The source made the active and inactive calls. Calls come from the whole dose curve; as a rule, active = well fitted curve in the direction sought with a large enough effect; inconclusive = small, poorly fitted or top-dose-only effect, or another doubt; inactive = no such curve, though single readings can be large; an effect the other way counts as inactive or inconclusive.

Assays:
[1] = Quantitative High-Throughput drug screen in 47 multiple myeloma cell lines against the NCATS MIPE library collection: JIM1_ECACC cell viability assay (AID 1918964); conditions: JIM1 myeloma viability, CellTiter-Glo ATP luminescence, 48 h; viability (% of DMSO): at 45.8 µM (top of the series)
How it was run: (§1)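 qHTS of the MIPE 4.0 collection: 500 myeloma cells/well, 48 h drug exposure at 37C in 5% CO2, then CellTiter-Glo for 5 min at room temperature before luminescence reading.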

[2] = Quantitative High-Throughput drug screen in 47 multiple myeloma cell lines against the NCATS MIPE library collection: INA6_PLB cell viability assay (AID 1918965; note: nearly all actives have a fitted effect of over 55% in size); conditions: INA6 myeloma viability, CellTiter-Glo ATP luminescence, 48 h; viability (% of control): at 45.8 µM (top of the series)
How it was run: (§2)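 Inhibition of cell viability is measured here. Each line was plated at 500 cells per well, treated with MIPE 4.0 drugs, kept 48 hours at 37C, then assayed for ATP content by CellTiter-Glo luminescence.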

[3] = Quantitative High-Throughput drug screen in 47 multiple myeloma cell lines against the NCATS MIPE library collection: JJN3_DSMZ cell viability assay (AID 1918966; note: nearly all actives have a fitted effect of over 50% in size); conditions: JJN3 myeloma cells viability, CellTiter-Glo ATP, 48 h; viability, % of DMSO: at 45.8 µM (top of the series)
How it was run: as §1

[4] = Quantitative High-Throughput drug screen in 47 multiple myeloma cell lines against the NCATS MIPE library collection: H1112_PLB cell viability assay (AID 1918967; note: nearly all actives have a fitted effect of over 30% in size); conditions: H1112 myeloma cells viability, ATP luminescence, 48 h; viability: at 45.8 µM (top of the series)
How it was run: as §1

[5] = Quantitative High-Throughput drug screen in 47 multiple myeloma cell lines against the NCATS MIPE library collection: Karpas25_ECACC cell viability assay (AID 1918968; note: nearly all actives have a fitted effect of over 35% in size); conditions: Karpas25 myeloma viability, CellTiter-Glo ATP, 48 h; viability (% of control): at 45.8 µM (top of the series)
How it was run: as §1

[6] = Quantitative High-Throughput drug screen in 47 multiple myeloma cell lines against the NCATS MIPE library collection: KMS27_JCRB cell viability assay (AID 1918970); conditions: KMS27 myeloma cells, CellTiter-Glo ATP viability, 48 h; viability (% of DMSO): at 45.8 µM (top of the series); note: nearly all actives have a fitted effect of over 30% in size
How it was run: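 Viability inhibition screen, 48 h compound exposure, luminescent ATP read-out.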

[7] = Quantitative High-Throughput drug screen in 47 multiple myeloma cell lines against the NCATS MIPE library collection: KMS12PE_JCRB cell viability assay (AID 1918972); conditions: KMS12PE myeloma viability, CellTiter-Glo ATP, 48 h; viability: at 45.8 µM (top of the series); note: nearly all actives have a fitted effect of over 30% in size
How it was run: as §2

[8] = Quantitative High-Throughput drug screen in 47 multiple myeloma cell lines against the NCATS MIPE library collection: KMS21BM_JCRB cell viability assay (AID 1918974); conditions: ATP luminescence, 48 h; viability: at 45.8 µM (top of the series) unless noted
How it was run: as §1

[9] = Quantitative High-Throughput drug screen in 47 multiple myeloma cell lines against the NCATS MIPE library collection: MMM1_PLB cell viability assay (AID 1918976); note: nearly all actives have a fitted effect of over 35% in size
How it was run: (§3)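 ATP-based luminescence (CellTiter-Glo, 5 min RT incubation) quantified surviving cells following two days' treatment with MIPE 4.0 agents at 37 °C, 5% CO2.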

[10] = Quantitative High-Throughput drug screen in 47 multiple myeloma cell lines against the NCATS MIPE library collection: MOLP8_DSMZ cell viability assay (AID 1918977); conditions: MOLP8 myeloma viability, CellTiter-Glo ATP luminescence, 48 h; viability (% of control): at 45.8 µM (top of the series); note: nearly all actives have a fitted effect of over 45% in size
How it was run: as §3

[11] = Quantitative High-Throughput drug screen in 47 multiple myeloma cell lines against the NCATS MIPE library collection: NCIH929_DSMZ cell viability assay (AID 1918978); note: nearly all actives have a fitted effect of over 35% in size
How it was run: as §3

[12] = Quantitative High-Throughput drug screen in 47 multiple myeloma cell lines against the NCATS MIPE library collection: OCIMY1_PLB cell viability assay (AID 1918979); note: nearly all actives have a fitted effect of over 35% in size
How it was run: as §3

[13] = Quantitative High-Throughput drug screen in 47 multiple myeloma cell lines against the NCATS MIPE library collection: MM1S_ATCC cell viability assay (AID 1918980); note: nearly all actives have a fitted effect of over 45% in size
How it was run: as §3

[14] = Quantitative High-Throughput drug screen in 47 multiple myeloma cell lines against the NCATS MIPE library collection: MM1R_ATCC cell viability assay (AID 1918981); note: nearly all actives have a fitted effect of over 35% in size
How it was run: as §3

[15] = Quantitative High-Throughput drug screen in 47 multiple myeloma cell lines against the NCATS MIPE library collection: LP1_DSMZ cell viability assay (AID 1918982); note: nearly all actives have a fitted effect of over 35% in size
How it was run: as §3

[16] = Quantitative High-Throughput drug screen in 47 multiple myeloma cell lines against the NCATS MIPE library collection: KMS12BM_JCRB cell viability assay (AID 1918971); note: nearly all actives have a fitted effect of over 35% in size
How it was run: (§4)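 Luminescent ATP measurement with CellTiter-Glo gives viability, scaled between DMSO-only wells (100%) and media-only wells (0%). Cells, 500 per well, faced library compounds for 48 hours at 37C.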

[17] = Quantitative High-Throughput drug screen in 47 multiple myeloma cell lines against the NCATS MIPE library collection: KMS20_JCRB cell viability assay (AID 1918973); conditions: CellTiter-Glo ATP, 48 h; viability (% of DMSO): at 45.8 µM (top of the series); note: nearly all actives have a fitted effect of over 45% in size
How it was run: as §1

[18] = Quantitative High-Throughput drug screen in 47 multiple myeloma cell lines against the NCATS MIPE library collection: KMS26_JCRB cell viability assay (AID 1918975); conditions: KMS26 myeloma cells viability, CellTiter-Glo ATP, 48 h; viability (% of DMSO): at 45.8 µM (top of the series); note: nearly all actives have a fitted effect of over 45% in size
How it was run: as §4

[19] = Quantitative High-Throughput drug screen in 47 multiple myeloma cell lines against the NCATS MIPE library collection: KMS28PE_JCRB cell viability assay (AID 1918983); note: nearly all actives have a fitted effect of over 35% in size
How it was run: as §3
Potency is the fitted concentration of half-maximal effect.

CCCc1cc(=O)[nH]c(=S)[nH]1
active: Potency [13] 2.64 µM
inconclusive: Potency [2] 0.001 µM | Potency [3] 0.0235 µM [rising, full curve, poor fit] | Potency [5] 10.5 µM [cytotoxic, partial curve] | Potency [6] 37.2 µM [cytotoxic, single point] | Potency [8] 33.2 µM [cytotoxic, single point] | Potency [9] 0.59 µM [rising, full curve, poor fit] | Potency [12] 6.62 µM [rising, partial curve, poor fit] | Potency [14] 37.2 µM [cytotoxic, single point]
inactive: Potency [1] | Potency [4] | Potency [7] | Potency [10] | Potency [11] | Potency [15]

CC1(C)O[C@@H]2C[C@H]3[C@@H]4CCC5=CC(=O)C=C[C@]5(C)[C@@H]4[C@@H](O)C[C@]3(C)[C@]2(C(=O)CO)O1
active: Potency [13] 0.296 µM | Potency [15] 0.0166 µM
inactive: Potency [4] | Potency [16]
inconclusive: Potency [1] 0.0372 µM [cytotoxic, full curve, poor fit] | Potency [2] 11.8 µM [cytotoxic, single point] | Potency [3] 0.0042 µM [rising, full curve, poor fit] | viability [8] 45.1% [cytotoxic] | Potency [9] 0.0019 µM [rising, full curve, poor fit] | Potency [10] 1.32 µM [cytotoxic, full curve, poor fit]

C[C@]12CC[C@H](O)CC1=CC[C@@H]1[C@H]2CC[C@]2(C)C(c3cccnc3)=CC[C@H]12
inactive: Potency [4] | Potency [16] | Potency [7] | Potency [17] | Potency [18] | Potency [14] | Potency [15] | Potency [19]
inconclusive: Potency [1] 0.0645 µM [rising, full curve, poor fit] | Potency [2] 3.63 µM [cytotoxic, partial curve, poor fit] | Potency [3] 7.24 µM [cytotoxic, partial curve, poor fit] | Potency [5] 18.2 µM [cytotoxic, single point] | Potency [8] 16.2 µM [rising, single point] | Potency [9] 0.363 µM [cytotoxic, full curve, poor fit] | Potency [10] 18.2 µM [cytotoxic, single point] | Potency [13] 0.0023 µM [cytotoxic, full curve, poor fit]

Grouped by structure, those above containing nitrogen in an aromatic ring
CCCc1cc(=O)[nH]c(=S)[nH]1
active: Potency [13] 2.64 µM
inconclusive: Potency [2] 0.001 µM | Potency [3] 0.0235 µM [rising, full curve, poor fit] | Potency [5] 10.5 µM [cytotoxic, partial curve] | Potency [6] 37.2 µM [cytotoxic, single point] | Potency [8] 33.2 µM [cytotoxic, single point] | Potency [9] 0.59 µM [rising, full curve, poor fit] | Potency [12] 6.62 µM [rising, partial curve, poor fit] | Potency [14] 37.2 µM [cytotoxic, single point]
inactive: Potency [1] | Potency [4] | Potency [7] | Potency [10] | Potency [11] | Potency [15]

C[C@]12CC[C@H](O)CC1=CC[C@@H]1[C@H]2CC[C@]2(C)C(c3cccnc3)=CC[C@H]12
inactive: Potency [4] | Potency [16] | Potency [7] | Potency [17] | Potency [18] | Potency [14] | Potency [15] | Potency [19]
inconclusive: Potency [1] 0.0645 µM [rising, full curve, poor fit] | Potency [2] 3.63 µM [cytotoxic, partial curve, poor fit] | Potency [3] 7.24 µM [cytotoxic, partial curve, poor fit] | Potency [5] 18.2 µM [cytotoxic, single point] | Potency [8] 16.2 µM [rising, single point] | Potency [9] 0.363 µM [cytotoxic, full curve, poor fit] | Potency [10] 18.2 µM [cytotoxic, single point] | Potency [13] 0.0023 µM [cytotoxic, full curve, poor fit]

(more compounds)

CCCn1c(=O)c2[nH]c(-c3cnn(Cc4cccc(C(F)(F)F)c4)c3)nc2n(CC)c1=O
active: Potency [3] 5.9 µM | Potency [9] 13.2 µM | Potency [15] 10.5 µM
inactive: Potency [4] | Potency [11]
inconclusive: Potency [1] 0.059 µM [cytotoxic, full curve, poor fit] | Potency [2] 0.003 µM [rising, full curve, poor fit] | Potency [6] 0.833 µM [cytotoxic, full curve, poor fit] | Potency [16] 16.6 µM [cytotoxic, partial curve, poor fit] | Potency [7] 0.0469 µM [cytotoxic, full curve, poor fit] | Potency [17] 23.5 µM [cytotoxic, single point] | Potency [18] 11.8 µM [cytotoxic, full curve, poor fit] | Potency [14] 18.7 µM [cytotoxic, partial curve, poor fit]

Nc1ncnc2ccccc12
inconclusive: Potency [4] 16.6 µM [cytotoxic, partial curve] | Potency [5] 37.2 µM [cytotoxic, single point] | Potency [16] 0.0019 µM [rising, full curve, poor fit] | Potency [7] 0.001 µM | Potency [17] 37.2 µM [cytotoxic, single point] | Potency [18] 0.0118 µM [rising, full curve, poor fit] | Potency [9] 0.0053 µM [rising, full curve] | Potency [13] 37.2 µM [cytotoxic, single point] | Potency [19] 0.0166 µM [rising, full curve, poor fit]
inactive: Potency [1] | Potency [2] | Potency [3] | Potency [10] | Potency [15]

CCN(C(=O)c1c(O)c2c(Cl)cccc2n(C)c1=O)c1ccccc1
inactive: Potency [4] | Potency [5] | Potency [16] | Potency [10] | Potency [12] | Potency [14] | Potency [15]
inconclusive: Potency [1] 37.2 µM [cytotoxic, single point] | Potency [2] 0.0296 µM [cytotoxic, full curve, poor fit] | Potency [3] 0.0023 µM [rising, full curve, poor fit] | Potency [7] 23.5 µM [cytotoxic, single point] | Potency [17] 0.0083 µM [cytotoxic, full curve, poor fit] | Potency [18] 0.0026 µM [cytotoxic, full curve, poor fit] | Potency [13] 0.0093 µM [rising, full curve, poor fit]

CC1(C)SCCN(S(=O)(=O)c2ccc(OCC#CCO)cc2)[C@@H]1C(=O)NO
inconclusive: Potency [1] 3.32 µM [cytotoxic, partial curve, poor fit] | Potency [2] 6.62 µM [cytotoxic, full curve, poor fit] | Potency [5] 18.7 µM [cytotoxic, partial curve, poor fit] | Potency [16] 2.64 µM [cytotoxic, full curve, poor fit] | Potency [7] 4.69 µM [cytotoxic, partial curve, poor fit] | Potency [17] 18.7 µM [cytotoxic, partial curve, poor fit] | Potency [8] 33.2 µM [rising, single point] | Potency [10] 0.0296 µM [cytotoxic, full curve, poor fit] | Potency [11] 4.69 µM [cytotoxic, partial curve, poor fit] | Potency [13] 8.33 µM [cytotoxic, partial curve, poor fit] | Potency [14] 6.62 µM [cytotoxic, partial curve, poor fit] | Potency [19] 0.0935 µM [cytotoxic, full curve, poor fit]
active: Potency [18] 2.96 µM | Potency [15] 16.6 µM
inactive: Potency [3] | Potency [4]

O=C(N[C@H](CO)[C@H](O)c1ccc([N+](=O)[O-])cc1)C(Cl)Cl
inactive: Potency [2] | Potency [3] | Potency [4] | Potency [6] | Potency [16] | Potency [10] | Potency [12] | Potency [13]
inconclusive: Potency [1] 37.2 µM [cytotoxic, single point] | Potency [17] 0.0187 µM [rising, full curve, poor fit] | Potency [8] 0.0235 µM [cytotoxic, full curve, poor fit] | Potency [9] 0.0209 µM [rising, full curve]

CO[C@H]1C[C@@H]2CC[C@@H](C)[C@@](O)(O2)C(=O)C(=O)N2CCCC[C@@H]2C(=O)O[C@H]([C@@H](C)C[C@@H]2CC[C@H](O)[C@H](OC)C2)CC(=O)[C@H](C)C=C(C)[C@@H](O)[C@@H](OC)C(=O)[C@H](C)C[C@H](C)C=CC=CC=C1C
inactive: Potency [18] | Potency [14] | Potency [15] | Potency [19]
inconclusive: Potency [1] 18.7 µM [cytotoxic, partial curve] | Potency [2] 16.6 µM [cytotoxic, partial curve] | Potency [3] 23.5 µM [cytotoxic, single point] | Potency [4] 18.7 µM [cytotoxic, partial curve, poor fit] | Potency [6] 23.5 µM [cytotoxic, partial curve] | Potency [16] 33.2 µM [cytotoxic, single point] | Potency [7] 26.4 µM [cytotoxic, single point] | Potency [17] 26.4 µM [cytotoxic, single point] | Potency [9] 0.0019 µM [rising, full curve, poor fit] | Potency [10] 14.8 µM [cytotoxic, partial curve, poor fit] | Potency [11] 26.4 µM [cytotoxic, single point] | Potency [12] 41.8 µM [cytotoxic, single point] | Potency [13] 29.6 µM [cytotoxic, single point]
